Results from PubChem BioAssay AID850 (SRMLSC, 2007).
Only a part is listed here, and it is no random draw. Active and inactive are the calls of the source. The rule behind the calls is not given here.

Assays:
[1] = yeast lifespan-shortening chemical project counter-assay, dose-response inhibition of growth under permissive conditions (AID 850); conditions: Saccharomyces cerevisiae growth inhibition, permissive control; measured here: maximum growth inhibition; at 50 µM; stronger effect = higher value;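 note: growth read as optical density after one day of incubation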
[2] = test system: Saccharomyces cerevisiae growth inhibition, permissive control; experiment: as above

With Cc1ccc(-c2cc(C(=O)N3N=C(C(F)F)CC3(O)C(F)F)c3ccccc3n2)cc1C (configuration not stated) as the compound, how does the inhibition [1] read?
The inhibition was 17.5%.

What about the IC50 [2] of the same compound?
The IC50 was inactive: > 100 µM.
